Assay results taken from article PMC6114956.
Results are given in words; binding and its absence hold for the method and conditions named. In cells and extracts the contact can be indirect. Some binding calls cover weakened binding; strength is not graded here.

The chains behind the UniProt entries cited, without tags or fusion partners.
UniProt Q14247: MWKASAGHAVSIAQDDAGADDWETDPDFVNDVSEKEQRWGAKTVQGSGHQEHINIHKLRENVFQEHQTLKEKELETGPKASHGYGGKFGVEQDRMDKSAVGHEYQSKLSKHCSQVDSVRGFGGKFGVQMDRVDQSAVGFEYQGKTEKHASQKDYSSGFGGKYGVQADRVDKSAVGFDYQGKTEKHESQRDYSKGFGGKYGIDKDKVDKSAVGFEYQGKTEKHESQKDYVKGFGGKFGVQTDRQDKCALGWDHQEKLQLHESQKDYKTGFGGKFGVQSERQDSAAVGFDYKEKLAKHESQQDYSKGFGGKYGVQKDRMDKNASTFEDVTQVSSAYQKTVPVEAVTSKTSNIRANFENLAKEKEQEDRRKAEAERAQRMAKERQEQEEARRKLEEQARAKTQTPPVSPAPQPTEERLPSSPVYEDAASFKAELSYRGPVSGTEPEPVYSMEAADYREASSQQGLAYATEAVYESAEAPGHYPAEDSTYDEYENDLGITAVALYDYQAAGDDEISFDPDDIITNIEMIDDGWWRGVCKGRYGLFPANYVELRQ

Columns and labels:
[1] = target: c-Cbl (c-Casitas B lineage lymphoma), E3 ubiquitin ligase (human (endogenous in B cells of CLL patients and healthy donors)) (UniProt P22681); assay: co-IP; lysates of normal B lymphocytes (Cnt, n = 3), unstimulated; immunoprecipitated with anti-c-Cbl or anti-CIN85 antibody, blotted with anti-c-Cbl and anti-CIN85
[2] = target: c-Cbl (c-Casitas B lineage lymphoma), E3 ubiquitin ligase (human (endogenous in B cells of CLL patients and healthy donors)) (UniProt P22681); assay: condition: only in neoplastic B lymphocytes of CLL patients, at steady state and upon anti-IgM BCR stimulation; co-IP; lysates of leukemic B cells from CLL patients, unstimulated and after 5 minutes of anti-IgM or 3 minutes of anti-IgD (10 ng/mL); immunoprecipitated with anti-c-Cbl, anti-CIN85 or anti-Lyn antibody, blotted for the partner
[3] = target: c-Cbl (c-Casitas B lineage lymphoma), E3 ubiquitin ligase (human (endogenous in B cells of CLL patients and healthy donors)) (UniProt P22681); assay: co-IP; lysates of leukemic B cells of CLL patients with Cortactin overexpression (CLL#491, CLL454), unstimulated; immunoprecipitated with anti-c-Cbl, blotted with anti-c-Cbl and anti-Cortactin
[4] = target: c-Cbl (c-Casitas B lineage lymphoma), E3 ubiquitin ligase (human (endogenous in B cells of CLL patients and healthy donors)) (UniProt P22681); assay: condition: only in CLL patients with lower Cortactin expression; co-IP; lysates of leukemic B cells of CLL patients with lower Cortactin expression (CLL#223), unstimulated; immunoprecipitated with anti-c-Cbl, blotted with anti-c-Cbl and anti-Cortactin

Row | binding [1] | binding [2] | binding [3] | binding [4] | Substance
1 | binds | no binding | – | – | CIN85, adapter protein (from UniProt Q96B97 1-665)
2 | – | – | binds | no binding | Cortactin (from UniProt Q14247 1-550)
